Some results were stated once for a whole list of compounds, not compound by compound. For at least one compound, name, drawing or mass did not settle the structure.
Tests used:
BALB/c female mice = assay: Acute toxicity test; format: in vivo; settings: intraperitoneal, 2 g in 100 mL D-PBS, one milliliter/head, mice of 20 g, observation for 24 hours
Protocol: Two grams of any one of the adenosine N1-oxide obtained in Experiment 1, the 3′-glucosyladesonine N1-oxide and 5′-glucosyladenosine N1-oxide obtained in Experiment 2, and the 5′-adenosine diphosphate N1-oxide and 5′-adenosine triphosphate N1-oxide obtained in Experiment 3 was dissolved in 100 mL of D-PBS (Dulbecco's Phosphate-Buffered Salines). The resulting solution was intraperitoneally administered to 10 BALB/c female mice, six-week-old, with an average body mass of 20 g each, commercialized by Charles River Laboratories Japan, Inc., Kanagawa, Japan, at a dose of one milliliter/head, followed by observation for 24 hours. As a control, only D-PBS was intraperitoneally administered to 10 BALB/c female mice, six-week-old, with an average body mass of 20 g each, commercialized by Charles River Laboratories Japan, Inc., Kanagawa, Japan, at a dose of one milliliter/head, followed by observation for 24 hours. Thereafter, each mouse was collected her blood and urine for measuring clinical test items as indexes for renal and liver functions. […] As a result, adenosine N1-oxide, 3′-glucosyladenosine N1-oxide, 5‘-glucosyladenosine N1-oxide, 5’-adenosinme diphosphate N1-oxide, and 5′-adenosine triphosphate N1-oxide have an LD50 of at least 1,000 mg/kg, respectively. Thus, these compounds are judged as substances safely administrable to humans.

[1] = test system: medium periodontal diseases; assay: Volunteer test 2: tooth mobility after mouthwash use, concentration series; format: in vivo, human; settings: aqueous mouthwash, % by mass, Experiment 6 or experimented similarly
From the text: • A: A distinct improvement in tooth mobility is observed on a tooth mobility test (or periodontometry) with a pincette compared with that before initiating the test; • B: Somewhat improvement in tooth mobility is observed on a tooth mobility test with a pincette compared with that before initiating the test; and • C: No improvement or rather aggravation is observed on a tooth mobility test with a pincette compared with that before initiating the test.
For adenosine N1-oxide, which had marked the highest improvement effect on periodontal diseases in Experiment 5, it was examined in more detail for its improvement action on periodontal diseases: Eight females, 20- to 30-year-old, as subjects, who were healthy except for suffering from medium periodontal diseases (with a periodontal pocket depth of 3 mm or deeper but less than 6 mm), were subjected to a volunteer test similarly as in Experiment 5 except for using six types of aqueous solutions containing 0.001 to 7.5% adenosine N1-oxide and setting a test period of seven months. The reason why the test period in this experiment was set to seven months longer than that in Experiment 5 by one month was to clearly determine the effect of adenosine N1-oxide at a lower concentration than that in Experiment 5 because there was also provided a system where adenosine N1-oxide was used at such a lower concentration than that in Experiment 5. As a control, a 5% aqueous solution of tranexamic acid (i.e., a control solution) was used.
The subjects were allowed to brush their teeth with the same toothpaste as used in Experiment 5. Except for directing them to avoid oral rinse and drinks/meals just after cleansing their oral cavities, they were allowed to spend their daily life as usual. Before initiating the test, a dental hygienist under a doctor's guidance evaluated the conditions of gingivitis for each subject […] based on the same criteria as shown in Experiment 5.

## Nc1c2ncn(C3OC(COP(=O)(O)OP(=O)(O)O)C(O)C3O)c2nc[n+]1[O-] (centres unmarked) [5′-adenosine diphosphate N1-oxide]
BALB/c female mice
  LD50: at least 1,000 mg/kg
[1]
  concentrations at which periodontal diseases are effectively prevented and/or treated: ≥ 0.01%

## Nc1c2ncn([C@@H]3O[C@H](COP(=O)(O)OP(=O)(O)OP(=O)(O)O)[C@@H](O)[C@H]3O)c2nc[n+]1[O-] [5′-adenosine triphosphate N1-oxide]
BALB/c female mice
  LD50: at least 1,000 mg/kg

## Nc1c2ncn([C@@H]3O[C@H](CO[C@H]4O[C@H](CO)[C@@H](O)[C@H](O)[C@H]4O)[C@@H](O)[C@H]3O)c2nc[n+]1[O-]
[1]
  concentrations at which periodontal diseases are effectively prevented and/or treated: ≥ 0.01%

## Nc1c2ncn([C@@H]3O[C@H](CO)[C@@H](O[C@H]4O[C@H](CO)[C@@H](O)[C@H](O)[C@H]4O)[C@H]3O)c2nc[n+]1[O-]
[1]
  concentrations at which periodontal diseases are effectively prevented and/or treated: ≥ 0.01%

— US9295627B2 (priority 2011, dated 2016)
